In this assay the test system is Swiss mice, Sarcoma 180 sc, mean tumor weight T/C. Put plainly: NCI In Vivo Anticancer Drug Screen. Data for tumor model Sarcoma 180 (subcutaneous) in Swiss mice. To be noted: T/C endpoint: mean tumor weight, higher T/C = larger tumour. In short, it runs like this:
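Tumor-bearing mice, transplantable tumor; readout survival or tumor size; result = T/C, treated vs vehicle control.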

The list shows only some results of the screen, not a fair sample: it gathers tests that were run many times, whatever their T/C, doses with no T/C, and many T/C values between a quarter and a half above the control. Further doses and runs are listed elsewhere. T/C gives the treated animals as a percentage of the vehicle group. Some T/C values are followed by the survivors on the day toxicity was checked, most often the fifth; where none is given, no animal had died by that day. Schedules are NCI's codes, taken here to give the interval after Q, in days (D) or hours (H), and the number of doses after X. Some doses were run more than once; their values stand side by side, smallest first. Some doses have a count of surviving animals in place of a T/C: the source files T/C as zero there, which appears to mark a toxic dose or a test without result, not a measured value. Counts of survivors are from the toxicity check (mostly the fifth day) where no day follows; animals may have died later. Some schedules carry Z or #; the key to these is not given.

As for `CCSCCC(N)C(=O)O` (stereo not given), the survivor count reads like this: (dose: 172.8 mg/kg/injection, schedule: Q#A X014 (ip), vehicle: carboxymethylcellulose (CMC)) 6 of 10; (dose: 216.0 mg/kg/injection, schedule: Q#A X014 (ip), vehicle: carboxymethylcellulose (CMC)) 6 of 10; (dose: 288.0 mg/kg/injection, schedule: Q#A X014 (ip), vehicle: carboxymethylcellulose (CMC)) 1 of 10; (dose: 432.0 mg/kg/injection, schedule: Q#A X014 (ip), vehicle: carboxymethylcellulose (CMC)) 2 of 10; (dose: 864.0 mg/kg/injection, schedule: Q01DX007 (ip), vehicle: carboxymethylcellulose (CMC)) 5 of 10.

On to `C[C@H]1C[C@@H]2[C@H](C(=O)C[C@@]3(C)[C@H]2CC[C@]3(O)C(=O)CO)[C@@]2(C)C=CC(=O)C=C12`, for which the survivor count (dose: 1109.0 mg/kg/injection, schedule: Q01DX007 (sc), vehicle: steroid suspending solution) was 1 of 6.

As to `CCCCNP(=O)(N1CC1)N1CC1`, the survivor count (dose: 0.1 mg/kg/injection, schedule: Q#A X014 (ip), vehicle: saline) is reported as 2 of 6.

Turning to `CCOC(=O)C1=C(C)NC(C)=C(C(=O)OCC)C1C`, the survivor count by setting is: (dose: 12.5 mg/kg/injection, schedule: Q01DX007 (ip), vehicle: other) 1 of 7; (dose: 31.2 mg/kg/injection, schedule: Q01DX007 (ip), vehicle: other) 2 of 6; (dose: 62.5 mg/kg/injection, schedule: Q01DX007 (ip), vehicle: other) 3 of 6.

For `C[C@]12C=CC(=O)C=C1CC[C@@H]1[C@@H]2[C@@H](O)C[C@@]2(C)[C@H]1CC[C@]2(O)C(=O)CF`, the survivor count is, setting by setting: (dose: 45.0 mg/kg/injection, schedule: Q01DX007 (sc), vehicle: steroid suspending solution) 4 of 7; (dose: 360.0 mg/kg/injection, schedule: Q01DX007 (sc), vehicle: steroid suspending solution) 4 of 7. The T/C (dose: 240.0 mg/kg/injection, schedule: Q01DX007 (sc), vehicle: steroid suspending solution, evaluated on day 8) was 24 [6 of 7 alive], 29, 31 [7 of 8 alive], 36 % of control.

With `CCc1c(CC(=O)O)c2cc(C)ccc2n1Cc1ccc(Cl)cc1`, the survivor count by setting is: (dose: 200.0 mg/kg/injection, schedule: Q01DX007 (ip), vehicle: saline) 0 of 6; (dose: 400.0 mg/kg/injection, schedule: Q01DX007 (ip), vehicle: saline) 0 of 6.

Source of the values: PubChem BioAssay AID342 (DTP/NCI, 2004).
